Data from publication PMC3071830.

The chains behind the UniProt entries cited, without tags or fusion partners. Where a name states a change or a piece, a line headed by the entry shows the natural chain unless it says otherwise.
UniProt P61961: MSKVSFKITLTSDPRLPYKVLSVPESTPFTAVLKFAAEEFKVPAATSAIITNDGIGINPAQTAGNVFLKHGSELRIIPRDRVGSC
UniProt P20029: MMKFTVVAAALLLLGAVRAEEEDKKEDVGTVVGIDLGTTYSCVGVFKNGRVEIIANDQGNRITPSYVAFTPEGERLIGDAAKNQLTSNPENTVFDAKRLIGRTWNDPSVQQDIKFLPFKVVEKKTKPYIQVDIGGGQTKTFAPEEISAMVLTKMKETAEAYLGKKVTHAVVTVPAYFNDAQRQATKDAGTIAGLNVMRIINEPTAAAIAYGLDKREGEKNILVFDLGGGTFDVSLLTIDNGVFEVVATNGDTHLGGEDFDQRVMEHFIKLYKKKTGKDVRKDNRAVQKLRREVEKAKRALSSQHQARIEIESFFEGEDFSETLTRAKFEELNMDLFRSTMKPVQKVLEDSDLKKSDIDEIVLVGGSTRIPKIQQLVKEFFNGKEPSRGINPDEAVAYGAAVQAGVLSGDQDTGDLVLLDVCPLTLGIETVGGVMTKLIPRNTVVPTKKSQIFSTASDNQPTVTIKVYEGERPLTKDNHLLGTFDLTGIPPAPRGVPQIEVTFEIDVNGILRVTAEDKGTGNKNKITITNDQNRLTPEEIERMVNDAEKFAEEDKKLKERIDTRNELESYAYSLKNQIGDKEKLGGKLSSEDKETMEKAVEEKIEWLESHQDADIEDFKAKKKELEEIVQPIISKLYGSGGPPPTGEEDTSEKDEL

Biological target: GST-UFM1(G) (mouse UFM1 with a C-terminal ending glycine residue, N-terminal GST) (mouse) (UniProt P61961)
Assay: pull-down; GST-UFM1(G), CDK5RAP3-GST or GST on glutathione-agarose beads; 35S-labelled in vitro translated proteins, pre-cleared on GST beads, added together with pre-cleared MIN6 lysate in ubiquitilation buffer (50 mM Tris pH 7.5, 100 mM NaCl, 0.1% NP40, 1 mM DTT, 2 mM ATP, 5 mM MgCl2), 30 min at 40°C as printed; phosphorimaging; only the target purified

35S-labelled mouse BiP, in vitro translated (from UniProt P20029 1-655)
binding: no binding

These are yes or no findings as the source states them, for the method shown. Binding seen in cells or lysates may run through a third protein.
